Assay results published in patent US20180339963A1, “ANTICONVULSANT CARBAMATE DERIVATIVES” (Yissum Research Development Company of the Hebrew …, priority 2017, published 2018).
Where “and” joins values, the source holds several entries; their conditions need not be identical. Equal values may be shown once.

Experiments:
6 Hz psychomotor seizure = 6 Hz psychomotor seizure test in mice; settings: i.p.
[1] = test system: maximal electroshock seizure (MES); assay: Maximal electroshock seizure (MES) test in mice; settings: i.p.
[2] = test system: maximal electroshock seizure (MES); assay: Maximal electroshock seizure (MES) test in rats
[3] = test system: pentylenetetrazol-induced seizure (scMet); assay: Subcutaneous metrazol seizure test (scMet) in mice; settings: i.p.

| SMILES | PI (TD50/ED50), 6 Hz (6 Hz psychomotor seizure) | PI (TD50/ED50), MES [1] | PI (TD50/ED50), MES ([2]; i.p.) | PI (TD50/ED50), MES ([2]; p.o.) | PI (TD50/ED50), scMet [3] |
| --- | --- | --- | --- | --- | --- |
| CCC(C)CCOC(=O)Nc1ccc(S(N)(=O)=O)cc1 (stereo not drawn) [Compound 10, 3-methylpentyl(4-sulfamoylphenyl)carbamate] | 7.9 | 59 and 50 | > 10 and >19.2 | >17.8 | 10 |
| CCCC(COC(=O)Nc1ccc(S(N)(=O)=O)cc1)C(C)CC (stereo not drawn) [Compound 1, 3-methyl-2-propylpentyl (4-sulfamoylphenyl)carbamate] | >6.8 | >3.6 | – | – | >1.6 |
| CCC(C)C(C)OC(=O)Nc1ccc(S(N)(=O)=O)cc1 (stereo not drawn) [Compound 9, 3-methylpentan-2-yl (4-sulfamoylphenyl)carbamate] | >11.3 | >19.4 | – | >21.4 | >1.6 |
